We go through 54 sequences from paper PMC7819943, “Rice protein-binding microarrays: a tool to detect cis-acting elements near promoter regions in rice”.

By UniProt entry, the sequences of proteins in these tests, tags left out.
UniProt Q0JBA9, entry or part of it: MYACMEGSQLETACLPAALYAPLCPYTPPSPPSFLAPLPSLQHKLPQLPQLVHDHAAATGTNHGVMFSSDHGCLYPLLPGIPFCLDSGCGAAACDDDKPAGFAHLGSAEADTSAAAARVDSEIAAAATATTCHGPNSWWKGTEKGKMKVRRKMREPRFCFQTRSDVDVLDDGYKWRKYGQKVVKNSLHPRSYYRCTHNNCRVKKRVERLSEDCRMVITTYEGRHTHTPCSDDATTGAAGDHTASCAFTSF

Some of the results follow.

This assay deals with OsWRKY34 (Oryza sativa, UniProt Q0JBA9 1-250). Description: protein-binding microarray (RPBM); PBS, 2% BSA, 51.3 ng/ul salmon testes DNA, 50 uM zinc acetate, 200 nM TF, 25 C, 1 h; high values mean tight binding. The settings on record: protein: recombinant; tags: N-terminal polyhistidine and DsRed monomer fusion (pET32a); label: CyDye5-dUTP incorporated in the synthesized complementary strand; 3' TTTTT single-stranded linker to array surface; dsDNA, one strand shown. The essentials:
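The binding signal is fluorescence intensity per array feature (arbitrary units). Readings came from an Axon 4000B scanner after a washed, 2% BSA-blocked, double-stranded custom Agilent array had been incubated for 1 h at 25 °C with 200 nM protein and 50 µM zinc acetate. The protein was a Ni–NTA-purified transcription factor fused N-terminally to polyhistidine and DsRed, expressed in E. coli BL21-CodonPlus.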
In the case of “TTTTTATGGCTCCATGAAACCGTGATCATTCCTACAGTACCGGAGTCACCTAGTGCAG”, the binding signal was 8590 fluorescence intensity (a.u.). The result for “ACCATCCCCACCATTCCACCGCCTTTGCCTCCCCGACCTCCGGAGTCACCTAGTGCAG” reads 9650 fluorescence intensity (a.u.). With “CGCCGCCACCATCACCTTCTTTGCCGCCAGAGCCAAGCCCCGGAGTCACCTAGTGCAG”, the binding signal is 9660 fluorescence intensity (a.u.). Next, “TCATCTCTGTAAACGTTCACACATATGTTATTTTTATAAACGGAGTCACCTAGTGCAG”: 8340 fluorescence intensity (a.u.); “GTTTTGTTATAAGCGGTGGTTTTTTTTCTCGCGTTGAATACGGAGTCACCTAGTGCAG”: 8310 fluorescence intensity (a.u.); “TAATAAACGGCATCAGTTTCTCTCTTACCACACCTCGTTTCGGAGTCACCTAGTGCAG”: 9420 fluorescence intensity (a.u.). The result for “ATGCCACTTAATTTTGACTTTTTTTTTTCTCAATTCATACCGGAGTCACCTAGTGCAG” reads 14400 fluorescence intensity (a.u.); that for “TTAGTAGTATATCGTCACCAATTATTGTAGTTAGCTCCACCGGAGTCACCTAGTGCAG”, 9580 fluorescence intensity (a.u.); that for “GTACAATCTTTGTTACTCATGCTGTGTCCGGCTCTCTTCTCGGAGTCACCTAGTGCAG”, 8230 fluorescence intensity (a.u.). For the sequence “TTCATCACAGTCTAGTACTTCTTGCACCTGCATCATCTGCCGGAGTCACCTAGTGCAG”, the binding signal was 9140 fluorescence intensity (a.u.).

Regarding “CCATTTCTACTTCGCATCGACTATTTTATAAATTTATTTACGGAGTCACCTAGTGCAG”, the binding signal was 8590 fluorescence intensity (a.u.). Next, “CACTCCTTTTCCATCGCGCTAACTCCCGTCGGCTCCTCCACGGAGTCACCTAGTGCAG”: 8110 fluorescence intensity (a.u.). The result for “AGCCCATCTTGCTTTGTGTTGGCCCTCATCTACATGGAGACGGAGTCACCTAGTGCAG” reads 8150 fluorescence intensity (a.u.); that for “TCTCCTATTCCATATCATCAACTTGTTCTTTTGCTAGTAGCGGAGTCACCTAGTGCAG”, 8030 fluorescence intensity (a.u.); that for “TCCTTTTCTCTCTGCGCCCATCTACTGTTGGTACTGAACTCGGAGTCACCTAGTGCAG”, 9020 fluorescence intensity (a.u.). The result for “GATCGATCCGAGCTCCTTCCACCACACTCTCTCGCCGATGCGGAGTCACCTAGTGCAG” reads 8210 fluorescence intensity (a.u.); that for “CTGGATGTGGCGATGAATTCGGTTGCCGTGCTTGGGGATGCGGAGTCACCTAGTGCAG”, 8720 fluorescence intensity (a.u.); that for “TCAGCCAAGAACGAGTTCATCTTCTTCTTCGTGTTGTTGTCGGAGTCACCTAGTGCAG”, 11100 fluorescence intensity (a.u.). With “GATGGGATTGGGACAAAGATATGAGTGGAGGGTTGAGATGCGGAGTCACCTAGTGCAG”, the binding signal was 8600 fluorescence intensity (a.u.). “TTCTGTTTGACTATTTTGATTCAAAGGATTGAAGCTTTCCCGGAGTCACCTAGTGCAG”: the binding signal is 9160 fluorescence intensity (a.u.). The result for “ACCAATTTCGCATGTGCGACCCGTGCAGCCCATCTCACGACGGAGTCACCTAGTGCAG” reads 8790 fluorescence intensity (a.u.); that for “ACGTTGGCACTGACTTTTCAATTTTCACTCTCCATTCAGTCGGAGTCACCTAGTGCAG”, 11000 fluorescence intensity (a.u.); that for “ATTATTATATTGTATATTCGGCATTCTGCGTGTTAATTAACGGAGTCACCTAGTGCAG”, 8930 fluorescence intensity (a.u.).

“GTTTCAAAATGTTTGACACCGTTGACTTTTTAGTACGTGTCGGAGTCACCTAGTGCAG”: the binding signal was 22500 fluorescence intensity (a.u.). The result for “GCTTTGCCTTCTTATATATCCCTACTACTACTACAGCATCCGGAGTCACCTAGTGCAG” reads 9880 fluorescence intensity (a.u.); that for “TATGTTTTTCTTTTTCCTGTGTTTTCTCAATCCTATGTTTCGGAGTCACCTAGTGCAG”, 9980 fluorescence intensity (a.u.). The result for “TGGTTTTGTATAGTTTAGGGGTGAAGATTTCTGGTTTTGTCGGAGTCACCTAGTGCAG” reads 8360 fluorescence intensity (a.u.). Next, “TACTGGCTGTATCCATTTCTTGTATGTATTGTTTATGTATCGGAGTCACCTAGTGCAG”: 8770 fluorescence intensity (a.u.). For “CGAACCGCCTGCCGAACAACGCGCAACCTCTCTCTCTCTCCGGAGTCACCTAGTGCAG”, the binding signal is 9830 fluorescence intensity (a.u.).

In the case of “TATTATGCCCAGTTCGCCACCCAAAATATCTCGTCTTTTCCGGAGTCACCTAGTGCAG”, the binding signal was 12000 fluorescence intensity (a.u.).

As for “GAAATACGCGTTCGCTATACAGGTTACGTACTCTCTGCTCCGGAGTCACCTAGTGCAG”, the binding signal is 10500 fluorescence intensity (a.u.). For the sequence “CCCTGGCAAATGTTCTTTCTCCTCTATTTTCCATCTCCAACGGAGTCACCTAGTGCAG”, the binding signal is 9120 fluorescence intensity (a.u.). The result for “ATTTTTTTTCTTGCTACCTCTCTCATCCACGTAAGTTTATCGGAGTCACCTAGTGCAG” reads 9690 fluorescence intensity (a.u.). The result for “CTGTTTTTATTCCTAATCATGAGTATATATGACATGTCTACGGAGTCACCTAGTGCAG” reads 8700 fluorescence intensity (a.u.); that for “GCACCCTTCCTATTATTCCAATTATTCCATTTGTATGAAACGGAGTCACCTAGTGCAG”, 8590 fluorescence intensity (a.u.); that for “GCACGTTCACATTGTCGTCACGAAATAGAGTTCTTTGATGCGGAGTCACCTAGTGCAG”, 8100 fluorescence intensity (a.u.). Consider “CACCTCCACTGCCCCGACCTCCATGGCTTCAGTCCCCAGTCGGAGTCACCTAGTGCAG”, for which the binding signal was 9120 fluorescence intensity (a.u.). Next, “GCGGCCTTTTTGTTTACTGTTTTCTCTGTGCTTGAGTTATCGGAGTCACCTAGTGCAG”: 9820 fluorescence intensity (a.u.); “TCAAATCCAAGTGCACCACCCTCAACTTTGTTAGCTTCTTCGGAGTCACCTAGTGCAG”: 13200 fluorescence intensity (a.u.); “GCATGATTTTAAATCTTACATTAACTTTTGCATATATTCACGGAGTCACCTAGTGCAG”: 9530 fluorescence intensity (a.u.).

For the sequence “GCCTGCCAAGTGATGATCGTCCCGTTGACCCAAATTTTCGCGGAGTCACCTAGTGCAG”, the binding signal is 14200 fluorescence intensity (a.u.). As to “GGGTCCACATCTCTCTCCTATCCTCTTCTTCCTCACGCACCGGAGTCACCTAGTGCAG”, the binding signal is 9390 fluorescence intensity (a.u.).

On to “TTGCTTGAGAAGTTCCATACATTGATTTTTGCAGACTGAACGGAGTCACCTAGTGCAG”, for which the binding signal is 8990 fluorescence intensity (a.u.). Next, “ATTCTACATGTCACATATTACGTCCATTTGAGTTCAATTTCGGAGTCACCTAGTGCAG”: 9350 fluorescence intensity (a.u.); “TAGATGTGGGCTCCTTCTTTCTATGTGTTTCCTACCAGCTCGGAGTCACCTAGTGCAG”: 9680 fluorescence intensity (a.u.).

For “ACCTCACATAAGCTAAAAAAGCTTCTCCAACCTAGTTTTTCGGAGTCACCTAGTGCAG”, the binding signal was 9340 fluorescence intensity (a.u.). Take “CCAGCCCCTTCGACTTCCCGCCCTCGCACCATTTCCGTGACGGAGTCACCTAGTGCAG”: the binding signal is 10800 fluorescence intensity (a.u.). On to “ACTTTGTTTCCTTCCTTCTTGGACGTTATCTCTCACATTCCGGAGTCACCTAGTGCAG”, for which the binding signal was 11200 fluorescence intensity (a.u.). The result for “GGCCAACATCACCATGTCAACATCGATCGCCGTCGACCTACGGAGTCACCTAGTGCAG” reads 10600 fluorescence intensity (a.u.); that for “GTCAACGATCCGGCGTCTGTTCCACTTCTACCCTCCCATCCGGAGTCACCTAGTGCAG”, 8250 fluorescence intensity (a.u.); that for “AGGGAAGCACTAGCCACCATAGAACTCTCTCTCTTTTTCTCGGAGTCACCTAGTGCAG”, 9550 fluorescence intensity (a.u.). The result for “TAAGTTCAGTTCCATTCCATCCACCAGTCGGCGTGACACTCGGAGTCACCTAGTGCAG” reads 8470 fluorescence intensity (a.u.); that for “TGGATCCGCCCTGTAAGTCCACGGCCACCTACTCCATCGTCGGAGTCACCTAGTGCAG”, 8750 fluorescence intensity (a.u.); that for “GGGTTAATTGCATTTGGTCTTGTGGATATGCACGTGATTTCGGAGTCACCTAGTGCAG”, 8640 fluorescence intensity (a.u.).
